Source: the supplement of paper PMC4604168 (melanoma cell lines)
The other results are listed elsewhere or left out. Repeats are few or missing, and single values can be far off.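 Imaging used 1,536-well plates; nuclei positive for cleaved PARP by antibody were divided by total DNA-stained nuclei to yield the apoptosis fraction. Doses for screening kept most cells viable, and cell lines differ markedly in resting and induced cleaved-PARP levels.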

How the values were obtained:
Test in all cases: cleaved PARP positive nuclei fraction relative to DMSO control; melanoma cells; higher = more apoptosis
Conditions in all cases: library dose: low library concentration; 72 h
MZ2-MEL = test system: MZ2-MEL
MeWo = test system: MeWo
RPMI7951 = test system: RPMI7951
RVH-421 = test system: RVH-421
SkMel28 = test system: SkMel28
SkMel2 = test system: SkMel2
SkMel30 = test system: SkMel30
SkMel5 = test system: SkMel5
UACC257 = test system: UACC257
UACC62 = test system: UACC62
WM115 = test system: WM115
WM1716 = test system: WM1716
WM1745 = test system: WM1745
WM3526 = test system: WM3526
WM3619 = test system: WM3619
WM451Lu = test system: WM451Lu

SMILES | cleaved PARP positive nuclei fraction (MZ2-MEL) | cleaved PARP positive nuclei fraction (MeWo) | cleaved PARP positive nuclei fraction (RPMI7951) | cleaved PARP positive nuclei fraction (RVH-421) | cleaved PARP positive nuclei fraction (SkMel28) | cleaved PARP positive nuclei fraction (SkMel2) | cleaved PARP positive nuclei fraction (SkMel30) | cleaved PARP positive nuclei fraction (SkMel5) | cleaved PARP positive nuclei fraction (UACC257) | cleaved PARP positive nuclei fraction (UACC62) | cleaved PARP positive nuclei fraction (WM115) | cleaved PARP positive nuclei fraction (WM1716) | cleaved PARP positive nuclei fraction (WM1745) | cleaved PARP positive nuclei fraction (WM3526) | cleaved PARP positive nuclei fraction (WM3619) | cleaved PARP positive nuclei fraction (WM451Lu)
O=C(/C=C/c1cccnc1)NCCCCC1CCN(C(=O)c2ccccc2)CC1 + C=CCn1c(=O)c2cnc(Nc3ccc(N4CCN(C)CC4)cc3)nc2n1-c1cccc(C(C)(C)O)n1 [MK1775] (first compound 0.01 µM, partner dose 0.02 µM) | 1310% | 72.9% | 100% | 217% | 231% | 808% | 63.8% | 54.2% | 90.3% | 31.4% | 127% | 26.6% | 111% | 48.4% | 137% | 216%
CCCCCCCCCCCCCCCCCCOP(=O)([O-])OC1CC[N+](C)(C)CC1 [Perifosine] + O=C1NC(=O)/C(=C/c2ccc(-c3ccc(F)cc3O)o2)S1 [AS252424] (first compound 0.4 µM, partner dose 1 µM) | 96.5% | 48% | 126% | 60.4% | 96.8% | 147% | 46.3% | 66.8% | 169% | 32.7% | 100% | 110% | 104% | 88.5% | 106% | 88.2%
Cc1cn(-c2cc(NC(=O)c3ccc(C)c(Nc4nccc(-c5cccnc5)n4)c3)cc(C(F)(F)F)c2)cn1 [nilotinib] + OCCn1cc(-c2cnc3nnn(Cc4ccc5ncccc5c4)c3n2)cn1 [PF04217903] (first compound 0.2 µM, partner dose 1 µM) | 48% | 53.6% | 107% | 153% | 52.5% | 69.5% | 72% | 214% | 50.3% | 28.1% | 59.9% | 18.7% | 78.7% | 116% | 91.8% | 78%
O=C(Nc1cc(C(F)(F)F)cc(C(F)(F)F)c1)c1cc(Cl)ccc1O + NCC(=O)Nc1ccc(-n2nc(C(F)(F)F)cc2-c2ccc3c(ccc4ccccc43)c2)cc1 [OSU03012] (first compound 0.016 µM, partner dose 1 µM) | 131% | 88.3% | 97.5% | 105% | 316% | 321% | 130% | 149% | 65.3% | 86.8% | 140% | 77.9% | 78.7% | 115% | 88.4% | 95.8%
N#CC[C@H](C1CCCC1)n1cc(-c2ncnc3[nH]ccc23)cn1 [ruxolitinib] + CC(C)(C)c1cnc(CSc2cnc(NC(=O)C3CCNCC3)s2)o1 [SNS-032] (first compound 1 µM, partner dose 0.01 µM) | 132% | 76.9% | 67.1% | 107% | 111% | 34.5% | 92.5% | 48.1% | 89.4% | 66.2% | 118% | 59.3% | 113% | 62% | 75.9% | 39.8%
COc1cc([C@@H]2c3cc4c(cc3[C@@H](O[C@@H]3O[C@@H]5CO[C@@H](C)O[C@H]5[C@H](O)[C@H]3O)[C@H]3COC(=O)[C@H]23)OCO4)cc(OC)c1O [etoposide] + COc1cc2ncnc(Nc3ccc(Oc4ccccc4)cc3)c2cc1OC [SrcI1] (first compound 0.02 µM, partner dose 2 µM) | 135% | 51% | 194% | 96% | 182% | 109% | 128% | 74% | 135% | 286% | 138% | 252% | 108% | 95.1% | 250% | 191%
N#CC[C@H](C1CCCC1)n1cc(-c2ncnc3[nH]ccc23)cn1 [ruxolitinib] + COC(=O)c1sccc1S(=O)(=O)Nc1ccc(Nc2ccccc2)cc1OC [GSK0660] (first compound 1 µM, partner dose 1 µM) | 77.7% | 137% | 147% | 129% | 121% | 101% | 79.7% | 70.4% | 26% | 149% | 56.4% | 94.2% | 87.6% | 130% | 92.2% | 83.3%
O=c1[nH]nc(Sc2ncc([N+](=O)[O-])s2)n1-c1ccc2c(c1)OCCO2 + COc1cc2ncnc(Nc3ccc(Oc4ccccc4)cc3)c2cc1OC [SrcI1] (first compound 0.2 µM, partner dose 2 µM) | 64.9% | 61.3% | 41.7% | 113% | 214% | 52.7% | 72.4% | 63.5% | 134% | 61.8% | 61.7% | 286% | 110% | 70.1% | 68.5% | 59.6%
Cc1cc(Nc2cc(N3CCN(C)CC3)nc(Sc3ccc(NC(=O)C4CC4)cc3)n2)n[nH]1 [Tozasertib] + CO[C@@H]1[C@H](N(C)C(=O)c2ccccc2)C[C@H]2O[C@]1(C)n1c3ccccc3c3c4c(c5c6ccccc6n2c5c31)C(=O)NC4 [Midostaurin] (first compound 0.006 µM, partner dose 0.08 µM) | 105% | 267% | 185% | 192% | 105% | 83.1% | 121% | 80.4% | 211% | 74.8% | 174% | 51.7% | 124% | 56.1% | 111% | 56%
